Experimental data published in article PMC7276988, “Cryo-EM Structure of the Fork Protection Complex Bound to CMG at a Replication Fork” (Molecular Cell, 2020).
These are yes or no findings as the source states them, for the method shown. For some of these results: In cells and extracts the contact can be indirect. Some results given as binding are weak or reduced against the parent protein; the word gives no strength.

Chains of the proteins cited; added tags and fusions are not shown. Lines headed by an entry give the natural chain unless they say otherwise; changes in a name come on top.
UniProt P29469: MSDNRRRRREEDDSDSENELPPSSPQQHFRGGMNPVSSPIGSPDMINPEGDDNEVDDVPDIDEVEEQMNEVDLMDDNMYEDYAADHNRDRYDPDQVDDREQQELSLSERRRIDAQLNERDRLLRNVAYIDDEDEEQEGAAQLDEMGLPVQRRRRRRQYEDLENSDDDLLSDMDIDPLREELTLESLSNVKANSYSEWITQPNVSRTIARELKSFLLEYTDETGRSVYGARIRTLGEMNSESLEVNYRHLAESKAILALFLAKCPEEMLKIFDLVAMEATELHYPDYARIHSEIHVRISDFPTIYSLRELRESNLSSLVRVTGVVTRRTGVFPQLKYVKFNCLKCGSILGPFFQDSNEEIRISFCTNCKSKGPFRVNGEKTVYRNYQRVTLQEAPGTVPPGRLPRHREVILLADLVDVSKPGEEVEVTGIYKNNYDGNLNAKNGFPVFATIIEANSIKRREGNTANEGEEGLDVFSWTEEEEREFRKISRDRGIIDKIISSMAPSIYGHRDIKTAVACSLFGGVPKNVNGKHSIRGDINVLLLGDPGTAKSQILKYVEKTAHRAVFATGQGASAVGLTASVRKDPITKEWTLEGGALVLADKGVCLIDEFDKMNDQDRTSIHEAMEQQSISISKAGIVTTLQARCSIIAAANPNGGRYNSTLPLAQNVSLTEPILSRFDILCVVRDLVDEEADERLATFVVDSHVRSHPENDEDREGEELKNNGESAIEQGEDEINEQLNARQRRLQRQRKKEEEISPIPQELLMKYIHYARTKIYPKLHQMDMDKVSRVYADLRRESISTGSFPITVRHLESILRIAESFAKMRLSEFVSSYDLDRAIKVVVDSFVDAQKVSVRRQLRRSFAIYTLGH
UniProt P53091: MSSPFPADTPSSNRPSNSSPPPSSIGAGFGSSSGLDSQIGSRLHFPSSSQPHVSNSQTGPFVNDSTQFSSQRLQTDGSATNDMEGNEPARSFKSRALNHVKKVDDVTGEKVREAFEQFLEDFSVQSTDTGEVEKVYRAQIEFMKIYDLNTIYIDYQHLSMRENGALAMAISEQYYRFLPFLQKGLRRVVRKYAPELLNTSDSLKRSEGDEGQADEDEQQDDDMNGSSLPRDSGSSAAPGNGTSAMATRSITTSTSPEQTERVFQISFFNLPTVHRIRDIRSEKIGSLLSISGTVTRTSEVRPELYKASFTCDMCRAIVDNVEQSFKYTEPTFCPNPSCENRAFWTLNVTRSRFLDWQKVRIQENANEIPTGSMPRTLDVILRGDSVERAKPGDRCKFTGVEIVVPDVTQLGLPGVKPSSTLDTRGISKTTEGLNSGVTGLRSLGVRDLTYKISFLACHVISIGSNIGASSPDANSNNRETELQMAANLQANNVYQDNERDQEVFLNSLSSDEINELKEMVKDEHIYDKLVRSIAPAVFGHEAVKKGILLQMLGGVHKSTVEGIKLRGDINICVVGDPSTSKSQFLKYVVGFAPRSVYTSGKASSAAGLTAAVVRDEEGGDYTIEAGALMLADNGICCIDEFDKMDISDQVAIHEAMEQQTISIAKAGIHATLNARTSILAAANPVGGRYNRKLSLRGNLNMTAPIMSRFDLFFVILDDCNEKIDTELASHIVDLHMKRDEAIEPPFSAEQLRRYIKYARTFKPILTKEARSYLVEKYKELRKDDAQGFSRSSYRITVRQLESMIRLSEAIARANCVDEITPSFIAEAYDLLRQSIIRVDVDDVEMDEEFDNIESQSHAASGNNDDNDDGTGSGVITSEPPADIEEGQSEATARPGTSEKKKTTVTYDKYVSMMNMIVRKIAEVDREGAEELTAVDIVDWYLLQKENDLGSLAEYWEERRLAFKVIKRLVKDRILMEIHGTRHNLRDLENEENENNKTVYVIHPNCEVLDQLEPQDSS

Key:
[1] = target: T1, Cdc45-MCM-GINS (CMG) helicase (S. cerevisiae, UniProt P29469 1-868; P24279 1-971; P30665 1-933; P29496 1-775; P53091 1-1017; P38132 …); experiment: tandem affinity co-purification and glycerol gradient of co-expressed proteins; 15 proteins co-overexpressed in S. cerevisiae yJY74; anti-FLAG M2, Calmodulin Sepharose, 10-30% glycerol gradient; SDS-PAGE
T1 construct: Mcm2, S. cerevisiae, subunit of MCM in CMG; Mcm3, S. cerevisiae, subunit of MCM in CMG; Mcm4, S. cerevisiae, subunit of MCM in CMG; Mcm5, S. cerevisiae, subunit of MCM in CMG; Mcm6, S. cerevisiae, subunit of MCM in CMG; Mcm7, S. cerevisiae, subunit of MCM in CMG; Cdc45, S. cerevisiae, subunit of CMG; Psf1, S. cerevisiae, subunit of GINS in CMG; Psf2, S. cerevisiae, subunit of GINS in CMG; Psf3, …

Mcm6 (S. cerevisiae) = Mcm6 (S. cerevisiae) (UniProt P53091); experiment: cross-linking; XL-MS: co-expressed complex of CMG, Ctf4, Csm3/Tof1 and Mrc1, calmodulin eluate cross-linked with 100-fold excess of DSBU, 60 min, room temperature; trypsin, LC-MS/MS, MeroX; cross-links residues within about 30 Å
Cdc45 = target: T2, Cdc45 (S. cerevisiae, UniProt Q08032 1-650); experiment: as above
T2 construct: Cdc45, S. cerevisiae, subunit of CMG; source: S. cerevisiae, overexpressed, purified as part of CMG; in XL-MS part of the co-expressed, co-purified complex (yJY74)
T2 sequence: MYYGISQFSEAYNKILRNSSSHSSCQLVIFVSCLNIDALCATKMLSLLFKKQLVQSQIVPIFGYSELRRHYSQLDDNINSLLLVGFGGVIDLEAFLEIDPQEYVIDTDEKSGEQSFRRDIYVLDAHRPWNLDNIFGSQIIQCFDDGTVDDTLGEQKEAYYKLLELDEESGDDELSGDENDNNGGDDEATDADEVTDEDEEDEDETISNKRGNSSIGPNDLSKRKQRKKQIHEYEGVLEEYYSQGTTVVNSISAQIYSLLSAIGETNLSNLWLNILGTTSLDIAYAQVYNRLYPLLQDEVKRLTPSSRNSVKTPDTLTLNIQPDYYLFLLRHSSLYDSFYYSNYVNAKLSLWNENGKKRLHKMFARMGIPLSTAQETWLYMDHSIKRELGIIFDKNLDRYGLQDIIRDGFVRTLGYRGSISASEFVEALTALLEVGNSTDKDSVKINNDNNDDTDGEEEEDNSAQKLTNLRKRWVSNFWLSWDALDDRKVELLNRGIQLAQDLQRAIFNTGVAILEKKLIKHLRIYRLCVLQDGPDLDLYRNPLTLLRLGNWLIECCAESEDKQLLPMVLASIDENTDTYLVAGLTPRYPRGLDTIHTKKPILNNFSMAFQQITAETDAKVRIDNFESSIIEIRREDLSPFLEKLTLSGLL

Tof1 = target: T3, Tof1 (S. cerevisiae, UniProt P53840 1-1238, phosphorylated (sites not given)); experiment: as above
T3 construct: Tof1, S. cerevisiae; residues 13-781 are resolved in the map; The Tof1 chain of m2; source: S. cerevisiae, overexpressed with Csm3, purified as Csm3/Tof1; in XL-MS part of the co-expressed, co-purified complex (yJY74)
T3 sequence: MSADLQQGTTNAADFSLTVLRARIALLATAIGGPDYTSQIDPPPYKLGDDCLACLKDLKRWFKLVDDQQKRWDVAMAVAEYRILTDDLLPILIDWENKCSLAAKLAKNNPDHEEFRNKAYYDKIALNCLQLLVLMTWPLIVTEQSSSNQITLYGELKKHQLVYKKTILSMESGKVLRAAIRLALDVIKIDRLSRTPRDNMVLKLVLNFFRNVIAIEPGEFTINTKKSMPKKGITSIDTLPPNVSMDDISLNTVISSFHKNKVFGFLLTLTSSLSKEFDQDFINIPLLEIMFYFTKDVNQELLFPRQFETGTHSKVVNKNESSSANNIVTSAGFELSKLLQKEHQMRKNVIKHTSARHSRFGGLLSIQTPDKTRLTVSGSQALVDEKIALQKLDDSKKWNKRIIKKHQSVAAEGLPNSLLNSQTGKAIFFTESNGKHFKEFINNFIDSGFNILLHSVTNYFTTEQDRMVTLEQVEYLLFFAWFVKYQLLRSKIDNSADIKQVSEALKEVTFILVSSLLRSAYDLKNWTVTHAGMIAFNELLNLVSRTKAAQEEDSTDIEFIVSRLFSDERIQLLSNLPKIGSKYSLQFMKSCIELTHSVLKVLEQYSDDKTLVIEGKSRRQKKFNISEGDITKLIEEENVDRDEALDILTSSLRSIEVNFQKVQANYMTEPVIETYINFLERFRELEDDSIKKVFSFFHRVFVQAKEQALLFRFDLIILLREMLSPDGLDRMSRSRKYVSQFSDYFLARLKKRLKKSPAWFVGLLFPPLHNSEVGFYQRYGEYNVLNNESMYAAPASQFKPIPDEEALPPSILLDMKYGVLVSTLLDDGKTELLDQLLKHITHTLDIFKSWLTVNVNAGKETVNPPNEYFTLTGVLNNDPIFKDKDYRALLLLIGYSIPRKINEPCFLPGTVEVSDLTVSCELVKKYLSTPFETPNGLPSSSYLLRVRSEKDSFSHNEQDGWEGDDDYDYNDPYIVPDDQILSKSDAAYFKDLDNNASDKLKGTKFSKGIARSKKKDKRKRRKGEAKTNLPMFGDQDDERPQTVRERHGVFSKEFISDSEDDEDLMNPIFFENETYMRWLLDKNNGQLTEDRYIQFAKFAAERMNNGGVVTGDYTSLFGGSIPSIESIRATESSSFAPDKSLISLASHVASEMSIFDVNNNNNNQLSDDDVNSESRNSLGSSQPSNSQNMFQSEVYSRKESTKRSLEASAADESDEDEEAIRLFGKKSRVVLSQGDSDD

binding [1]: binds
binding (Mcm6 (S. cerevisiae)): binds
binding (Cdc45): binds
binding (Tof1): binds
B1: Mrc1 (natural protein, S. cerevisiae, UniProt P25588 1-1096, looked up)
chain: MDDALHALSSLTAKKRTTTYKKVAVPILDENDNTNGNGPNDIDNPPELTGNGFLFANATLNRVKNRLEGKKAPEQNHNNGKDRSENSLPTQLISNLYDGGEELEKSEVKDNSYSEKNVSSSFTQTQRIPVSIQQDKVFNVPIHSVNDGKPTQLIKEDGLVNETSQALKTPLTTGRPGATQRIDSSGATSQTQPIKSIEPQSQIITTSSNHSNALSPKIPIIPTELIGTSPLFQSIQNRGPDTQMDVPPQTAHDEDKTQAIGIPQATHQEQKTQIDTVAQTLQDEVPHTLKIREIQSELASEDSKREKARNVEYKKPQKPIPTKKFFSKESFLADFDDSSSNEDDDIKLENAHPKPVQNDDELHENKSVELNLTDETRINEKRVPLLSSYANNLKREIDSSKCITLDLDSDSDEYGDDDMDSIKLSKDESVLPISQLSKATILNLKARLSKQNQKLSQRPNKSKDPKVDHNVLLNTLRKASRKQILDHQKEVIETKGLKLEDMAKEKEIVENLLEQEILRNKRIRQKEKRREKLEENDFQLNAHDSGSDSGSESSGFALSGNEIADYESSGSENDNRRESDSEKEDDEIILKQKKSHHVKHIINESDSDTEVEAKPKEKADESLPKRIAINLGHYGDNIGEDTDKFQETNVLDTQNIEEVMAERNTIENEVKDDVYVNEEADEAIRRQLIDKEKLQLKQKEKEHEAKIKELKKRGVTNFFEMEAEESEDEWHGIGGADGEGSDDYDSDLEKMIDDYSKNNFNPHEIREMLAAENKEMDIKMINKILYDIKNGGFRNKRAKNSLELELSDDDEDDVLQQYRLKRRELMRKRRLEIGDDAKLVKNPKSSAFFESMVEDIIEYKNPFGAEEEYNLDITSTATDLDTQDNSINVGDNTGNNEQKPVDQKNKKVIISEDFVQKSLSFLKSNNYEDFETDKELSRIQHGNDEAIEDLYTLKQNSSIKSFTNSQTDSTTSKTVNTIIDLEKRPEDEDEVENGDTSLVGVFKHPSIIKSFASRTDINDKFKEGNKTVKILKSYKTVGSSKASITYMGKTRKLIAPKRKTEGSHRYHHDHHNKKMKMKTKTKSNKLFESGQDSFDN
notes: Mrc1, S. cerevisiae; printed as a 125 kDa protein; The FLAG purification is told for the separately purified protein; source: S. cerevisiae, overexpressed at 20°C, purified (anti-FLAG M2, Superose 6)
